Test results taken from the supplement of paper PMC10849652.
This is one part of the list.

Chains of the proteins cited; added tags and fusions are not shown. Lines headed by an entry give the natural chain unless they say otherwise; changes in a name come on top.
UniProt Q92466: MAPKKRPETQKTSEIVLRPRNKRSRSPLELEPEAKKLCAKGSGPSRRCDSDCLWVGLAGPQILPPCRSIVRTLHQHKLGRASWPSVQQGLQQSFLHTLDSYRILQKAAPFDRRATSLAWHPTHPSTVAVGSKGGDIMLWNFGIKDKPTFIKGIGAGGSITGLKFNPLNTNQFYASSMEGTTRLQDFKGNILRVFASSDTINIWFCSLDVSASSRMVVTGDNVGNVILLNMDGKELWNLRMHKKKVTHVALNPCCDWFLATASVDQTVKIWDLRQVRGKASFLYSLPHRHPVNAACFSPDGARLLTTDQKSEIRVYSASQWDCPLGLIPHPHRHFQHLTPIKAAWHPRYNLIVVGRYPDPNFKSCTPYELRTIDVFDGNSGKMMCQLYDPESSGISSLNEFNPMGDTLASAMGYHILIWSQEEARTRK
UniProt Q9H1C7: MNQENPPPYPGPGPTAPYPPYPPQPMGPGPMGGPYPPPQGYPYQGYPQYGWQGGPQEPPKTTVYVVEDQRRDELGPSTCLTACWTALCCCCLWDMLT
UniProt P61962: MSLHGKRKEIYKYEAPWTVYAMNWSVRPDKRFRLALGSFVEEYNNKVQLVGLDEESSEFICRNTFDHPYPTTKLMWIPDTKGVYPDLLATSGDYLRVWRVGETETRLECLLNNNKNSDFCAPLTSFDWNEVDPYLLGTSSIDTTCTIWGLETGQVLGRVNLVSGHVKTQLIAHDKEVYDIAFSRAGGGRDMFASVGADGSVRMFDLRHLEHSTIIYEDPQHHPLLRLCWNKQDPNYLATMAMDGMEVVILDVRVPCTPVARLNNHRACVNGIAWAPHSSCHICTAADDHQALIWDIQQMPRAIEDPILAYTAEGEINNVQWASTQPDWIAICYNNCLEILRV
UniProt P51397: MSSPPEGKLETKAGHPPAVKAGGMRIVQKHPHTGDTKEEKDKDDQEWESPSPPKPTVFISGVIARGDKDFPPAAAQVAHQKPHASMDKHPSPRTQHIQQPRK
UniProt Q9UK59: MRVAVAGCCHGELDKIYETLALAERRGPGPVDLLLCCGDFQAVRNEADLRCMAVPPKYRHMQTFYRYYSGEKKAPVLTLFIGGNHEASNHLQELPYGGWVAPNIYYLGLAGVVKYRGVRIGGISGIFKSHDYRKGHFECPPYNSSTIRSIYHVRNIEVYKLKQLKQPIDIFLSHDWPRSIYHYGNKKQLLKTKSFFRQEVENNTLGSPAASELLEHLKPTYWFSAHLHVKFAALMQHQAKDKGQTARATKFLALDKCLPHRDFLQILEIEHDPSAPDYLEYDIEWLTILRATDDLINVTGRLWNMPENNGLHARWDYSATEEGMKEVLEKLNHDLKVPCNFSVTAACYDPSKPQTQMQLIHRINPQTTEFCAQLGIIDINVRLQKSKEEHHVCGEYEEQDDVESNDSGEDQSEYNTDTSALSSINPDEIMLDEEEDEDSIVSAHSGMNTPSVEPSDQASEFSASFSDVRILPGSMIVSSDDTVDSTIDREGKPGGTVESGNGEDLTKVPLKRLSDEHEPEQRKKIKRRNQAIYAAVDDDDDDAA
UniProt Q16531, whole entry, looked up: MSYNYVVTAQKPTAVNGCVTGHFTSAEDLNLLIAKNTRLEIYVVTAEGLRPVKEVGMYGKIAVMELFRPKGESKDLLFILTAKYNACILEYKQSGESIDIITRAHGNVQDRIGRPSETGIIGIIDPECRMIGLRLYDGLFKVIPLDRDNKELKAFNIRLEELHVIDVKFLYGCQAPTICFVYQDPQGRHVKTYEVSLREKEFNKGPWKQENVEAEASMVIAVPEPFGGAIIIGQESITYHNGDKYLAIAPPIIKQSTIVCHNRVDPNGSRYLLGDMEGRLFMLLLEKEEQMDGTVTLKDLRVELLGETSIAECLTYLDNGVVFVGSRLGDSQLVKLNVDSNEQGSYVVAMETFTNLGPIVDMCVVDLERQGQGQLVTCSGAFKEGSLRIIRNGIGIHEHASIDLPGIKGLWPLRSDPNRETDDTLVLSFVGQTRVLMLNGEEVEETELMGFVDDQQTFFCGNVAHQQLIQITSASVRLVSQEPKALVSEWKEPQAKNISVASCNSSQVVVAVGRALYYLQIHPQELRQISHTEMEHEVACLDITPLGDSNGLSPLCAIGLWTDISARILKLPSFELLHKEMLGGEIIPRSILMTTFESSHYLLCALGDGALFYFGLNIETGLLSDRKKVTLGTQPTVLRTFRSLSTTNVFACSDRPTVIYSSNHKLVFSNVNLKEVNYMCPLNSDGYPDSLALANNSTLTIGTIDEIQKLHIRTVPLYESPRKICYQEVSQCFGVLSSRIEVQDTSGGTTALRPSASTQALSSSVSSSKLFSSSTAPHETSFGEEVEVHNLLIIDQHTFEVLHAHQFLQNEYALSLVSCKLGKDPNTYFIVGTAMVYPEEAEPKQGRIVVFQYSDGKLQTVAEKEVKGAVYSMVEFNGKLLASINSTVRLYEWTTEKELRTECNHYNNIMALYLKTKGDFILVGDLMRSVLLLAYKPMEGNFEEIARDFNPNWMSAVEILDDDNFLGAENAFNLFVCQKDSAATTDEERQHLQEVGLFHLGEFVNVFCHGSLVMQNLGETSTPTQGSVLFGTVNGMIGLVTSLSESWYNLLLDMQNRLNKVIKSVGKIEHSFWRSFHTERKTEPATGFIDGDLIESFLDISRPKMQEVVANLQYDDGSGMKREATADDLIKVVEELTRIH
UniProt Q8NA75: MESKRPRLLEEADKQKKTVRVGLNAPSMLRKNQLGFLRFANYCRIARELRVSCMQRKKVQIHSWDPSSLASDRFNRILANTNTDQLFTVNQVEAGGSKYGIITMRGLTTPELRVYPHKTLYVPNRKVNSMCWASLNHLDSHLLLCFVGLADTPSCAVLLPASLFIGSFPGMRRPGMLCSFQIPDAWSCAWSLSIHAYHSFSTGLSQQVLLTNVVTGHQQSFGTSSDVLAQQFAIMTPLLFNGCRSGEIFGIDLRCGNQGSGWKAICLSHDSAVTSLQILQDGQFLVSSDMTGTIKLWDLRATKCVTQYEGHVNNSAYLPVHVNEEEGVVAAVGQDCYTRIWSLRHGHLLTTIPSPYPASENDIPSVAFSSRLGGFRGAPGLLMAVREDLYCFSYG
UniProt Q9UHI6: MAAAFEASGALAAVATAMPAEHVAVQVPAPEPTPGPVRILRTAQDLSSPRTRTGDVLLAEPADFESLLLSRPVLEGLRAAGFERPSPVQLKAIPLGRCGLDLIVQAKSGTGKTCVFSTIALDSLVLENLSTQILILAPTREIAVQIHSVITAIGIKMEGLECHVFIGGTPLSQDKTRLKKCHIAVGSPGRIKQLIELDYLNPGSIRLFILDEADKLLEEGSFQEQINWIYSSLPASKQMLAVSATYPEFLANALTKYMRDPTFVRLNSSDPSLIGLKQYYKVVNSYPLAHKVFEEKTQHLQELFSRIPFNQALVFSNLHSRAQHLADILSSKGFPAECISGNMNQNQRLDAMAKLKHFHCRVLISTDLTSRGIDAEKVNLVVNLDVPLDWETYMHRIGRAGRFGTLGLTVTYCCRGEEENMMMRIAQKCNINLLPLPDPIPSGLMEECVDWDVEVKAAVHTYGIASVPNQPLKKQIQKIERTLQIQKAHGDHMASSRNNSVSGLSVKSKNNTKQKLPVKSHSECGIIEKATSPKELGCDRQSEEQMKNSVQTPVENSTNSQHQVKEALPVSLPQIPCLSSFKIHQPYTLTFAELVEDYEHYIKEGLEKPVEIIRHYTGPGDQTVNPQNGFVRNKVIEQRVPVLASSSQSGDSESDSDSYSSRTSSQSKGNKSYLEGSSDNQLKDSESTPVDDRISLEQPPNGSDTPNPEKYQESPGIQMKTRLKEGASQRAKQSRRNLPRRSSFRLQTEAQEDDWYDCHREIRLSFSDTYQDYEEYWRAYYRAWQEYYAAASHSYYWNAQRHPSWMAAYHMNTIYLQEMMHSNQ
UniProt Q9Y2R4: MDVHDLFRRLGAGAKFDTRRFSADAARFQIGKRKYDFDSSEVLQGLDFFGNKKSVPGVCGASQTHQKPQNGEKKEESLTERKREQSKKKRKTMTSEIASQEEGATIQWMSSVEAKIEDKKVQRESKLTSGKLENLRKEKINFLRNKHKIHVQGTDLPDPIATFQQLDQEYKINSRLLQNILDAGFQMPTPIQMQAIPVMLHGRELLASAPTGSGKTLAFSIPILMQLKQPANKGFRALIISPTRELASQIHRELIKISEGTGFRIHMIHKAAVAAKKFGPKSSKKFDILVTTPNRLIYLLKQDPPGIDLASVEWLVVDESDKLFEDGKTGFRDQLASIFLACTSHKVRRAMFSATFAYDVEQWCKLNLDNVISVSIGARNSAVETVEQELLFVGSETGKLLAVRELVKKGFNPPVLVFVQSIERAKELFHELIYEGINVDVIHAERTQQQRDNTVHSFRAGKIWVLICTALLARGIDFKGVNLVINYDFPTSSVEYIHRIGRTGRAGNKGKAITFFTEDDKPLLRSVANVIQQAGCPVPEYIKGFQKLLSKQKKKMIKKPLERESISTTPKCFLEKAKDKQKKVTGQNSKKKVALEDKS
UniProt Q5VZ89: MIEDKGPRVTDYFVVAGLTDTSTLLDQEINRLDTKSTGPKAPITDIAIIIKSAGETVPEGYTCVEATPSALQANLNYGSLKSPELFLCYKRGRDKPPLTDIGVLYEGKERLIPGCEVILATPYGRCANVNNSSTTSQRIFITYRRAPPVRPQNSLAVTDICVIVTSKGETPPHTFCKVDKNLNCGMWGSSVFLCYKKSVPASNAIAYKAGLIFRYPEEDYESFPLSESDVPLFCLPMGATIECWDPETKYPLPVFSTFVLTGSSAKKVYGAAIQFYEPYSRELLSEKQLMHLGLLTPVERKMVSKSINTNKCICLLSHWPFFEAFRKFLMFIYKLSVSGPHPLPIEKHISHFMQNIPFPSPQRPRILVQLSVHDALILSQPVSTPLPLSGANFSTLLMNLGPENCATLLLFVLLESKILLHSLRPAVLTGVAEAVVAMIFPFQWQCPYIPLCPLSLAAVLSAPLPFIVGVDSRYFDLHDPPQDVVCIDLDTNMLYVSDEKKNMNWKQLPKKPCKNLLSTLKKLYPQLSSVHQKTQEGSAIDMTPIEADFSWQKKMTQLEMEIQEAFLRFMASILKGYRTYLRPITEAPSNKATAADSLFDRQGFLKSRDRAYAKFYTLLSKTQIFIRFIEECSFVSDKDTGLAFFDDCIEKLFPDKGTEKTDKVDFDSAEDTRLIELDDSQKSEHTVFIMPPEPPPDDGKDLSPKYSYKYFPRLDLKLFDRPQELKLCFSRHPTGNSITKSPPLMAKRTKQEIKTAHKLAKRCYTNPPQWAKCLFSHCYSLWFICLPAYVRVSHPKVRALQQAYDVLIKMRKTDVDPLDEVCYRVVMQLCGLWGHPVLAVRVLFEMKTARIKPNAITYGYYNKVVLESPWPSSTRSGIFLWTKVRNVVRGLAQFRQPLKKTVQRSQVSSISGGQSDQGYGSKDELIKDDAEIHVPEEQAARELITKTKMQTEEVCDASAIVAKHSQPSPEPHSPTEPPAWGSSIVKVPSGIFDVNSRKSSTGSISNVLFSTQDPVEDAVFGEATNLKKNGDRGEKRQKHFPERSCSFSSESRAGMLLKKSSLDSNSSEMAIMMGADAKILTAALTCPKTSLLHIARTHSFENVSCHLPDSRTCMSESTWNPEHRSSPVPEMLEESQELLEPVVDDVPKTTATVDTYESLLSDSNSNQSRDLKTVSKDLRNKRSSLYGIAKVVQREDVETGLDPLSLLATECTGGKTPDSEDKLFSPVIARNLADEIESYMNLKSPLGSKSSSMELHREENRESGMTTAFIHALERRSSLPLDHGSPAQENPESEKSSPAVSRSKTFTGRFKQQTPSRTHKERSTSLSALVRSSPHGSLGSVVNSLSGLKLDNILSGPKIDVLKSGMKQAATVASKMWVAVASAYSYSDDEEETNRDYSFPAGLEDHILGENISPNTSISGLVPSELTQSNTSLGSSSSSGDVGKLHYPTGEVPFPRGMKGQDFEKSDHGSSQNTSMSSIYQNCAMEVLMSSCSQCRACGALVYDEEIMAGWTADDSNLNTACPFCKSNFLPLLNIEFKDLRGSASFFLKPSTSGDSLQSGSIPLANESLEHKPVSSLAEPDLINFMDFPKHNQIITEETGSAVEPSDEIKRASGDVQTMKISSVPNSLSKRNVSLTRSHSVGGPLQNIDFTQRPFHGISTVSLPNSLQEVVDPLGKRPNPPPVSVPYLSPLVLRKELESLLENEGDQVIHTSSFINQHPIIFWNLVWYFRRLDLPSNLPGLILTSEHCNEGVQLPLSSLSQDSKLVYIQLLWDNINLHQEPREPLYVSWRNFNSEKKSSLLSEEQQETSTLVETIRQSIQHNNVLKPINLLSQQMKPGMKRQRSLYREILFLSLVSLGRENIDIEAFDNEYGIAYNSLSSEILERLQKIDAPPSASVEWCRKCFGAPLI

Legend:
Assay in all cases: log2 fold change, soluble protein after heating vs DMSO (PISA); higher = thermal stabilisation; K562 lysate, 10 uM; active = over 0.2 and 3.5 SD of the protein, either way, in both replicates (recomputed)
erlotinib = compound: C#Cc1cccc(Nc2ncnc3cc(OCCOC)c(OCCOC)cc23)c1 [erlotinib]
Method in brief: (§1)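 Dounce homogenisation of K562 pellets in PBS pH 7.4 with 1 mM MgCl2 produced a crude extract, used at 1 mg/mL protein. Exposure to 10 μM compound lasted 30 min, and aliquots were then heated for 3 min across 48°C-58°C, pooled and brought to 0.5% NP-40 at 4°C. The supernatant after 21,000xg for 90 min was quantified by TMTpro 16plex LC-MS/MS with channel sums equalised. Duplicate values are given as log-two fold change in thermal stability relative to solvent controls.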

[1] = compound: C/C(=N\NC(=O)C1=CC(=CC=C1)S(=O)(=O)N2CCOCC2)/C3=C(C=CC(=C3)Cl)O
Method in brief: as §1

[2] = compound: C1=CC(=CC=C1C2=NC3=C(N2)C=C(C=C3)C(=O)N)OC4=CC=C(C=C4)Cl
Method in brief: as §1

[3] = compound: C1=CC2=C(C=CC(=C2)/C=C\3/C(=O)NC(=NCC4=CC=CS4)S3)N=C1
Method in brief: as §1

[4] = compound: C1=CC2=NC=CN=C2C=C1/C=C/3\C(=O)NC(=O)S3
Method in brief: as §1

[5] = compound: C1=CC=C(C=C1)C2=NC(=C(N2)C3=CC=NC=C3)C4=CC(=C(C=C4)Cl)O
Method in brief: as §1

[6] = compound: C1=CC=C2C(=C1)C3=NNC4=CC=CC(=C43)C2=O
Method in brief: as §1

[7] = compound: C1CCN(C1)C(=O)NC2=CC=CC(=C2)NC3=NC=C(C(=N3)NCCC4=CN=CN4)Br
Method in brief: as §1

[8] = compound: C1CN(CCC1(CC2=CC=C(C=C2)Cl)N)C3=NC=NC4=C3C=CN4
Method in brief: as §1

IRAK-1-4 Inhibitor I = compound: C1COCCN1CCN2C3=CC=CC=C3N=C2NC(=O)C4=CC(=CC=C4)[N+](=O)[O-] [IRAK-1-4 Inhibitor I]
Method in brief: as §1

ibrutinib = compound: C=CC(=O)N1CCC[C@@H](n2nc(-c3ccc(Oc4ccccc4)cc3)c3c(N)ncnc32)C1 [ibrutinib]
Method in brief: as §1

[9] = compound: CC(=O)c1cnc2ccc(-c3cc(Cl)c(O)c(Cl)c3)nc2c1N[C@H]1CC[C@H](CN(C)C)CC1
Method in brief: as §1

ralimetinib = compound: CC(C)(C)Cn1c(N)nc2ccc(-c3[nH]c(C(C)(C)C)nc3-c3ccc(F)cc3)nc21 [ralimetinib]
Method in brief: as §1

[10] = compound: CC(C)(O)CC(=O)NCCn1ccc2ncnc(Nc3ccc(Oc4cccc(C(F)(F)F)c4)c(Cl)c3)c21
Method in brief: as §1

[11] = compound: CC(C)C1=C2N=C(C=C(N2N=C1)NCC3=CC=CC=C3)NCCCCCCN
Method in brief: as §1

[12] = compound: CC1=C(C(CC(=O)N1)C2=CC=C(C=C2)C(F)(F)F)C(=O)NC3=C(C=C4C(=C3)C=NN4)F
Method in brief: as §1

[13] = compound: CC1=C(C2=C(C=C1)C(=O)C3=CC=CC=C3N2CCCN)C
Method in brief: as §1

[14] = compound: CC1=C(C=C(C=C1)NC(=O)C2=CC(=CC=C2)C(C)(C)C#N)NC3=CC4=C(C=C3)N=CN(C4=O)C
Method in brief: as §1

[15] = compound: CC1=C(C=C(C=C1)NC(=O)C2=CC(=CC=C2)N(C)C)NC(=O)C3=CC=C(C=C3)O
Method in brief: as §1

[16] = compound: CC1=CC=C(C=C1)SC2=C3C=C(SC3=CN=C2)C(=O)N
Method in brief: as §1

Measured: log2 fold change

DDB2 (UniProt Q92466)
inactive: erlotinib -0.007 | [1] -0.028 | [2] 0.07 | [3] 0.052 | [4] 0.064 | [5] -0.024 | [6] 0 | [7] -0.075 | [8] -0.041 | IRAK-1-4 Inhibitor I 0.026 | ibrutinib 0.075 | [9] -0.016 | ralimetinib 0.009 | [10] -0.033 | [11] -0.007 | [12] 0.091 | [13] -0.003 | [14] 0.009 | [15] 0 | [16] 0.01

CYSTM1 (UniProt Q9H1C7)
inactive: erlotinib 0.055 | [1] -0.032 | [2] 0.024 | [3] 0.119 | [4] 0.1 | [5] 0.023 | [6] -0.049 | [7] 0.129 | [8] -0.012 | IRAK-1-4 Inhibitor I -0.099 | ibrutinib 0.128 | [9] 0.018 | ralimetinib -0.052 | [10] -0.039 | [11] 0.014 | [12] -0.013 | [13] 0.076 | [14] 0.096 | [15] 0.042 | [16] -0.045

DCAF7 (UniProt P61962)
inactive: erlotinib -0.046 | [1] -0.02 | [2] 0.024 | [3] 0.073 | [4] 0.043 | [5] -0.02 | [6] 0.095 | [7] 0.005 | [8] 0.024 | IRAK-1-4 Inhibitor I 0.021 | ibrutinib -0.025 | [9] 0.084 | ralimetinib -0.022 | [10] -0.02 | [11] -0.013 | [12] -0.002 | [13] 0.006 | [14] -0.031 | [15] 0.008 | [16] 0.016

DAP (UniProt P51397)
inactive: erlotinib 0.005 | [1] -0.001 | [2] 0.015 | [3] 0.046 | [4] 0.051 | [5] 0.003 | [6] -0.02 | [7] -0.005 | [8] 0.053 | IRAK-1-4 Inhibitor I 0.02 | ibrutinib 0.162 | [9] -0.002 | ralimetinib 0.001 | [10] -0.034 | [11] 0.001 | [12] 0.037 | [13] -0.039 | [14] 0.017 | [15] -0.004 | [16] -0.024

DBR1 (UniProt Q9UK59)
inactive: erlotinib -0.024 | [1] -0.022 | [2] 0.032 | [3] 0.024 | [4] 0.008 | [5] 0 | [6] 0.007 | [7] -0.03 | [8] -0.016 | IRAK-1-4 Inhibitor I 0.001 | ibrutinib -0.013 | [9] 0.006 | ralimetinib 0.049 | [10] -0.012 | [11] -0.025 | [12] -0.002 | [13] 0.017 | [14] -0.012 | [15] -0.022 | [16] 0.024

DDB1 (UniProt Q16531)
inactive: erlotinib -0.013 | [1] -0.02 | [2] -0.009 | [3] 0.012 | [4] 0.014 | [5] 0.002 | [6] 0.028 | [7] 0.008 | [8] -0.007 | IRAK-1-4 Inhibitor I 0.006 | ibrutinib 0.005 | [9] 0.002 | ralimetinib 0.02 | [10] 0.002 | [11] -0.017 | [12] -0.009 | [13] 0.014 | [14] 0.009 | [15] -0.026 | [16] -0.011

DCAF4L2 (UniProt Q8NA75)
inactive: erlotinib -0.02 | [1] -0.01 | [2] -0.012 | [3] -0.101 | [4] 0.04 | [5] 0.07 | [6] -0.039 | [7] -0.011 | [8] -0.003 | IRAK-1-4 Inhibitor I -0.058 | ibrutinib -0.116 | [9] -0.176 | ralimetinib 0.012 | [10] -0.011 | [11] -0.054 | [12] 0.058 | [13] -0.019 | [14] -0.021 | [15] -0.042 | [16] 0.088

DDX20 (UniProt Q9UHI6)
inactive: erlotinib 0.021 | [1] 0.048 | [2] -0.054 | [3] -0.029 | [4] -0.005 | [5] 0.007 | [6] 0.022 | [7] 0.032 | [8] 0.042 | IRAK-1-4 Inhibitor I -0.015 | ibrutinib -0.01 | [9] 0.017 | ralimetinib 0.029 | [10] -0.029 | [11] -0.03 | [12] -0.011 | [13] 0.004 | [14] -0.006 | [15] 0.044 | [16] 0.01

DDX52 (UniProt Q9Y2R4)
inactive: erlotinib 0.046 | [1] 0.011 | [2] 0.021 | [3] 0.022 | [4] -0.021 | [5] -0.018 | [6] 0.008 | [7] -0.033 | [8] 0.032 | IRAK-1-4 Inhibitor I 0.089 | ibrutinib 0.09 | [9] 0.025 | ralimetinib 0.034 | [10] 0.057 | [11] -0.053 | [12] 0.012 | [13] 0.018 | [14] 0.17 | [15] -0.057 | [16] 0.021

DDX24 (UniProt Q9GZR7)
inactive: erlotinib 0.048 | [1] -0.01 | [2] -0.015 | [3] 0.034 | [4] -0.013 | [5] 0.02 | [6] 0.03 | [7] 0.037 | [8] 0.015 | IRAK-1-4 Inhibitor I -0.04 | ibrutinib 0.003 | [9] -0.005 | ralimetinib 0.02 | [10] -0.01 | [11] 0.022 | [12] -0.016 | [13] -0.014 | [14] -0.008 | [15] 0.006 | [16] 0.02

DENND1A isoform 6 (UniProt Q8TEH3)
inactive: erlotinib 0.022 | [1] 0.11 | [2] -0.026 | [3] 0.117 | [4] -0.02 | [5] -0.056 | [6] 0 | [7] 0.023 | [8] 0.064 | IRAK-1-4 Inhibitor I -0.021 | ibrutinib 0.068 | [9] 0.104 | ralimetinib -0.087 | [10] 0.057 | [11] 0.053 | [12] 0.024 | [13] -0.016 | [14] -0.102 | [15] 0.061 | [16] -0.11

DAG1 (UniProt Q14118)
inactive: erlotinib 0.014 | [1] 0.021 | [2] 0.007 | [3] 0.013 | [4] 0.016 | [5] 0 | [6] -0.014 | [7] 0.015 | [8] 0.008 | IRAK-1-4 Inhibitor I 0.019 | ibrutinib 0.085 | [9] -0.001 | ralimetinib -0.053 | [10] -0.055 | [11] -0.011 | [12] -0.012 | [13] 0 | [14] -0.03 | [15] 0.022 | [16] -0.018

2 successive records from above, for reference:
DDX24 (UniProt Q9GZR7)
inactive: erlotinib 0.048 | [1] -0.01 | [2] -0.015 | [3] 0.034 | [4] -0.013 | [5] 0.02 | [6] 0.03 | [7] 0.037 | [8] 0.015 | IRAK-1-4 Inhibitor I -0.04 | ibrutinib 0.003 | [9] -0.005 | ralimetinib 0.02 | [10] -0.01 | [11] 0.022 | [12] -0.016 | [13] -0.014 | [14] -0.008 | [15] 0.006 | [16] 0.02

DENND1A isoform 6 (UniProt Q8TEH3)
inactive: erlotinib 0.022 | [1] 0.11 | [2] -0.026 | [3] 0.117 | [4] -0.02 | [5] -0.056 | [6] 0 | [7] 0.023 | [8] 0.064 | IRAK-1-4 Inhibitor I -0.021 | ibrutinib 0.068 | [9] 0.104 | ralimetinib -0.087 | [10] 0.057 | [11] 0.053 | [12] 0.024 | [13] -0.016 | [14] -0.102 | [15] 0.061 | [16] -0.11

The listing continues:

DENND4C (UniProt Q5VZ89)
inactive: erlotinib -0.01 | [1] -0.01 | [2] -0.018 | [3] 0.003 | [4] -0.059 | [5] -0.032 | [6] -0.013 | [7] -0.011 | [8] -0.025 | IRAK-1-4 Inhibitor I -0.002 | ibrutinib 0.023 | [9] -0.005 | ralimetinib 0.036 | [10] 0.014 | [11] 0.034 | [12] -0.024 | [13] -0.017 | [14] -0.001 | [15] 0.032 | [16] 0.013

DDI2 isoform 3 (UniProt Q5TDH0)
inactive: erlotinib -0.033 | [1] 0.007 | [2] 0.019 | [3] -0.001 | [4] -0.013 | [5] -0.009 | [6] 0.029 | [7] 0 | [8] -0.018 | IRAK-1-4 Inhibitor I 0.016 | ibrutinib 0.007 | [9] 0.013 | ralimetinib -0.009 | [10] -0.049 | [11] -0.011 | [12] 0.002 | [13] 0.022 | [14] 0.014 | [15] 0.001 | [16] -0.021

DDX49 (UniProt Q9Y6V7)
inactive: erlotinib 0.011 | [1] -0.002 | [2] 0.056 | [3] 0.029 | [4] -0.05 | [5] 0.035 | [6] 0.014 | [7] 0.039 | [8] -0.019 | IRAK-1-4 Inhibitor I 0.01 | ibrutinib 0.009 | [9] -0.005 | ralimetinib -0.015 | [10] -0.036 | [11] 0.038 | [12] -0.046 | [13] -0.191 | [14] 0.099 | [15] 0.034 | [16] 0.022

DDX42 (UniProt Q86XP3)
inactive: erlotinib -0.005 | [1] 0.033 | [2] -0.002 | [3] -0.009 | [4] -0.005 | [5] 0 | [6] -0.019 | [7] 0.011 | [8] 0.006 | IRAK-1-4 Inhibitor I -0.003 | ibrutinib 0.04 | [9] 0.004 | ralimetinib -0.027 | [10] 0.018 | [11] 0.029 | [12] -0.003 | [13] 0.036 | [14] 0.022 | [15] -0.002 | [16] -0.008
